In patent US20180207294A1, “NON-ALCOHOLIC FATTY LIVER REGULATING FACTOR 14-3-3 PROTEIN” (Korea University Research and Business Foundation, priority 2015, published 2018) one finds binding data, which are given here for four molecules.

Chains of the proteins cited; added tags and fusions are not shown.
UniProt P37231: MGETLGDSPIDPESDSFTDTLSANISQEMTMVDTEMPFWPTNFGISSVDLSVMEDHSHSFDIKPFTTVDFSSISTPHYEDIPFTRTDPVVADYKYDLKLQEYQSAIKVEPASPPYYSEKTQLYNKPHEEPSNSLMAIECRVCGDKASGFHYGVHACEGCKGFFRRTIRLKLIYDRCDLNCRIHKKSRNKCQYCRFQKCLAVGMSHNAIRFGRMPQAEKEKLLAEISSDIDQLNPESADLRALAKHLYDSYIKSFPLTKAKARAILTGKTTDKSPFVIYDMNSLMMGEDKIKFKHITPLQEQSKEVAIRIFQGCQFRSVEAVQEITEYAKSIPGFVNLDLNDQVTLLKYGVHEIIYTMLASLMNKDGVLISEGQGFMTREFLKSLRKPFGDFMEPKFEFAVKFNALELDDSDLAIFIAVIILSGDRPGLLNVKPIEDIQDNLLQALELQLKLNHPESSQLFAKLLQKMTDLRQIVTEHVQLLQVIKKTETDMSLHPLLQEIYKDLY
UniProt P31946: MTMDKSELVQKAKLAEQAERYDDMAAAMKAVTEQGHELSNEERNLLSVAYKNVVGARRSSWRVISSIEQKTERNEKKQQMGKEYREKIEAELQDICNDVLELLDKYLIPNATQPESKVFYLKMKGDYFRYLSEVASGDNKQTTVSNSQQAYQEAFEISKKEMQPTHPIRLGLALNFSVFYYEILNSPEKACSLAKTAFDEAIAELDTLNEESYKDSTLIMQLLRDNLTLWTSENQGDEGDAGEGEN

No constants are given. Whether binding was seen depends on the method and setting. In cells and extracts the contact can be indirect. Some binding calls cover weakened binding; strength is not graded here. For some assays here: Where a sequence is shown, tags or fusion partners need not be part of it.

The target of assay [1] is mGST-PPARγ2 (UniProt P37231). Put plainly: GST pull-down of mGST-PPARγ2 from HEK-293T lysate, western blot, with/without 200 µM oleic acid.
Assay [2] has as its target mGST-PPARγ2 (UniProt P37231). Put plainly: GST pull-down competition, HA-14-3-3β (2 and 4 µg DNA) against GFP-14-3-3γ.
Assay [3] has as its target Myc-PPARγ2 (UniProt P37231). Briefly: GST pull-down from HEK-293T lysate, western blot, with/without 10 µM pioglitazone.
The target of assay [4] is Flag-PPARγ2 (1-505) (UniProt P37231). Put plainly: GST pull-down from HEK-293T lysate, western blot (WT against S112A and S273A). Background: A western blot detects proteins with antibodies after separation by electrophoresis.
For assay [5], the target named is mGST-PPARγ2 (UniProt P37231). Put plainly: GST pull-down competition, HA-14-3-3γ (2 and 4 µg DNA) against GFP-14-3-3β.

With HA-14-3-3β (from UniProt P31946 1-246), the binding entry in assay [1] and in assay [2] was “binds” in each case.

In the case of “mGST-14-3-3β (from UniProt P31946 1-246)”, the binding entry in assay [3] and in assay [4] was “binds” throughout.

B1: HA-14-3-3γ (protein, UniProt P61981 1-247, looked up, not shown: small tags and cut ends)
chain: MVDREQLVQKARLAEQAERYDDMAAAMKNVTELNEPLSNEERNLLSVAYKNVVGARRSSWRVISSIEQKTSADGNEKKIEMVRAYREKIEKELEAVCQDVLSLLDNYLIKNCSETQYESKVFYLKMKGDYYRYLAEVATGEKRATVVESSEKAYSEAHEISKEHMQPTHPIRLGLALNYSVFYYEIQNAPEQACHLAKTAFDDAIAELDTLNEDSYKDSTLIMQLLRDNLTLWTSDQQDDDGGEGNN
Consider B1, for which the binding entry in assay [1] and in assay [5] was “binds” throughout.

B2: mGST-14-3-3γ (protein, UniProt P61981 1-247, looked up, not shown: a dimerising Fc or GST)
chain: MVDREQLVQKARLAEQAERYDDMAAAMKNVTELNEPLSNEERNLLSVAYKNVVGARRSSWRVISSIEQKTSADGNEKKIEMVRAYREKIEKELEAVCQDVLSLLDNYLIKNCSETQYESKVFYLKMKGDYYRYLAEVATGEKRATVVESSEKAYSEAHEISKEHMQPTHPIRLGLALNYSVFYYEIQNAPEQACHLAKTAFDDAIAELDTLNEDSYKDSTLIMQLLRDNLTLWTSDQQDDDGGEGNN
Regarding B2, the binding result in assay [3] and in assay [4] was “binds” throughout.
